The list shows only some results of the screen, not a fair sample: its compounds were picked by chemical class. Not every dose and run of a compound is shown. T/C: endpoint of the treated group in % of that of the vehicle group. Some doses have a count of surviving animals in place of a T/C: the source holds a T/C of zero for them, seemingly a mark for toxic or unscored doses. Some doses without a T/C left all or most animals alive at the check, yet need not have been tolerated: the source hardly ever lists a survival T/C far under the control, and the zero likely stands for such cases as well. Counts of survivors are from the toxicity check (mostly the fifth day) where no day follows; animals may have died later. Schedule codes are those of the source, read here as Q, the interval in days (D) or hours (H), X, the number of doses. Some entries hold several experiments; the results are listed from low to high. Where survival is the endpoint, the PubChem record calls one and a half times the control and up active, and a quarter to a half above the control has no call in these data; cut-offs in other NCI protocols can differ. Some schedules carry Z or #; the key to these is not given. Some T/C values are marked as having no survivor count here; that says nothing about deaths at the dose. Some T/C values are followed by the survivors on the day toxicity was checked, most often the fifth; without a count or a note in brackets, all were alive then.
Tested on: L1210 leukemia ip in BDF1 mice, survival T/C
Experiment: NCI In Vivo Anticancer Drug Screen. Data for tumor model L1210 Leukemia (intraperitoneal) in B6D2F1 (BDF1) mice
Details: T/C endpoint: mean survival time, higher T/C = longer survival
[1] = dose: 100.0 mg/kg/injection, schedule: Q01DX001 (ip), vehicle: saline
[2] = dose: 200.0 mg/kg/injection, schedule: Q01DX001 (ip), vehicle: saline
[3] = dose: 400.0 mg/kg/injection, schedule: Q01DX001 (ip), vehicle: saline
[4] = dose: 5.0 mg/kg/injection, schedule: Q01DX001 (ip), vehicle: saline
[5] = dose: 10.0 mg/kg/injection, schedule: Q01DX001 (ip), vehicle: saline
[6] = dose: 20.0 mg/kg/injection, schedule: Q01DX001 (ip), vehicle: saline
[7] = dose: 40.0 mg/kg/injection, schedule: Q01DX001 (ip), vehicle: saline
[8] = dose: 80.0 mg/kg/injection, schedule: Q01DX001 (ip), vehicle: saline
[9] = dose: 12.5 mg/kg/injection, schedule: Q04DX003 (ip), vehicle: saline
[10] = dose: 25.0 mg/kg/injection, schedule: Q04DX003 (ip), vehicle: saline
[11] = dose: 50.0 mg/kg/injection, schedule: Q04DX003 (ip), vehicle: saline
[12] = dose: 100.0 mg/kg/injection, schedule: Q04DX003 (ip), vehicle: saline
[13] = dose: 200.0 mg/kg/injection, schedule: Q04DX003 (ip), vehicle: saline
[14] = dose: 400.0 mg/kg/injection, schedule: Q04DX003 (ip), vehicle: saline

## C/C1=C2N=C(/C=C3N=C(/C(C)=C4\[N-]C(C(CC(N)=O)C4(C)CCC(=O)NCC(C)OP(=O)(O)OC4C(CO)OC(n5cnc6cc(C)c(C)cc65)C4O)C4(C)N=C1C(CCC(N)=O)C4(C)CC(N)=O)C(CCC(N)=O)C\3(C)C)C(CCC(N)=O)C/2(C)CC(N)=O.[C-]#N.[Co+2] (stereo unspecified)
[1]
  T/C: 96 % of control
[2]
  T/C: 96 % of control
[3]
  T/C: 105 % of control

## O=[N+]([O-])c1cccc(O)c1[N+](=O)[O-]
dose: 50.0 mg/kg/injection, schedule: Q01DX009 (ip), vehicle: other
  T/C: 92 % of control
dose: 100.0 mg/kg/injection, schedule: Q01DX009 (ip), vehicle: other
  T/C: 92 % of control
dose: 200.0 mg/kg/injection, schedule: Q01DX009 (ip), vehicle: other
  survivor count: 6 of 6

## CN(C)P(N)(Cl)(N(C)C)N(C)C
[1]
  T/C: 95 % of control
[2]
  survivor count: 1 of 6
[3]
  survivor count: 0 of 6

## CN(C)P1OCCO1
dose: 100.0 mg/kg/injection, schedule: Q04DX002 (ip), vehicle: saline with Tween-80
  T/C: 122 % of control
dose: 200.0 mg/kg/injection, schedule: Q04DX002 (ip), vehicle: saline with Tween-80
  T/C: 94 % of control
dose: 400.0 mg/kg/injection, schedule: Q04DX002 (ip), vehicle: saline with Tween-80
  T/C: 102 % of control

## CCN(CC)[P+](Oc1ccccc1)(N(CC)CC)N(CC)CC.F[P-](F)(F)(F)(F)F
[4]
  T/C: 101 % of control
[5]
  T/C: 113 % of control
[6]
  T/C: 111 % of control
[7]
  T/C: 105 % of control
[8]
  T/C: 103 % of control [5 of 6 alive]
[1]
  survivor count: 1 of 4
[2]
  survivor count: 0 of 4
[3]
  survivor count: 0 of 4

## CC(C)(C)C1COP(C)(=O)OC1 (stereo unspecified)
dose: 12.5 mg/kg/injection, schedule: Q04DX002 (ip), vehicle: saline with Tween-80
  T/C: 108 % of control [survivor count not shown]

## COc1cc(CCNCCCl)cc(OC)c1OC
dose: 50.0 mg/kg/injection, schedule: Q01DX001 (ip), vehicle: saline
  T/C: 104 % of control
[1]
  T/C: 116 % of control
[2]
  T/C: 113 % of control
[3]
  T/C: 98 % of control [3 of 4 alive]

## CC1OOC1(C)C (stereo unspecified)
dose: 50.0 mg/kg/injection, schedule: Q01DX001 (ip), vehicle: water
  T/C: 106 % of control
dose: 100.0 mg/kg/injection, schedule: Q01DX001 (ip), vehicle: water
  T/C: 98 % of control
dose: 200.0 mg/kg/injection, schedule: Q01DX001 (ip), vehicle: water
  T/C: 100 % of control

## OCCF
dose: 1.5 mg/kg/injection, schedule: Q01DX009 (ip), vehicle: saline
  T/C: 113 % of control
dose: 1.5 mg/kg/injection, schedule: Q04DX003 (ip), vehicle: saline
  T/C: 106 % of control
dose: 3.0 mg/kg/injection, schedule: Q01DX009 (ip), vehicle: saline
  survivor count: 0 of 6
dose: 3.0 mg/kg/injection, schedule: Q04DX003 (ip), vehicle: saline
  T/C: 117 % of control [5 of 6 alive]
dose: 6.0 mg/kg/injection, schedule: Q01DX009 (ip), vehicle: saline
  survivor count: 0 of 6
dose: 6.0 mg/kg/injection, schedule: Q04DX003 (ip), vehicle: saline
  survivor count: 0 of 6
[9]
  survivor count: 0 of 6
[10]
  survivor count: 0 of 6
[11]
  survivor count: 0 of 6
[12]
  survivor count: 0 of 6
[13]
  survivor count: 0 of 6
[14]
  survivor count: 0 of 6

## ClCCN1CC2CCCC(CC2)C1
[10]
  T/C: 106 % of control
[11]
  T/C: 107 % of control [4 of 6 alive]
[12]
  survivor count: 0 of 6 and 1 of 6
[13]
  survivor count: 0 of 6
[14]
  survivor count: 0 of 6

## CCOP(=O)(NCCO)N(CCCl)CCCl (stereo unspecified)
dose: 50.0 mg/kg/injection, schedule: Q01DX Z (ip), vehicle: saline
  T/C: 88 % of control
dose: 100.0 mg/kg/injection, schedule: Q01DX Z (ip), vehicle: saline
  T/C: 93 % of control
dose: 200.0 mg/kg/injection, schedule: Q01DX Z (ip), vehicle: saline
  T/C: 96 % of control [5 of 6 alive]
dose: 400.0 mg/kg/injection, schedule: Q01DX Z (ip), vehicle: saline
  T/C: 100 % of control

## CP(=S)(N=[N+]=[N-])OC1CCCCC1 (stereo unspecified)
dose: 0.19 mg/kg/injection, schedule: Q01DX009 (ip), vehicle: saline
  T/C: 94 % of control [survivor count not shown]
dose: 0.39 mg/kg/injection, schedule: Q01DX009 (ip), vehicle: saline
  T/C: 101 % of control [survivor count not shown]
dose: 0.78 mg/kg/injection, schedule: Q01DX009 (ip), vehicle: saline
  T/C: 99 % of control [survivor count not shown]
dose: 1.56 mg/kg/injection, schedule: Q01DX009 (ip), vehicle: saline
  T/C: 90 % of control [survivor count not shown]
dose: 6.25 mg/kg/injection, schedule: Q01DX009 (ip), vehicle: saline
  T/C: 213 % of control [survivor count not shown]

## ClCCN(CCCl)B1SCCS1
dose: 2.5 mg/kg/injection, schedule: Q01DX001 (ip), vehicle: carboxymethylcellulose (CMC)
  T/C: 98 % of control
dose: 2.5 mg/kg/injection, schedule: Q01DX001 (sc), vehicle: olive oil, sesame oil, peanut oil
  T/C: 98 % of control
dose: 5.0 mg/kg/injection, schedule: Q01DX001 (ip), vehicle: carboxymethylcellulose (CMC)
  T/C: 98 % of control
dose: 5.0 mg/kg/injection, schedule: Q01DX001 (sc), vehicle: olive oil, sesame oil, peanut oil
  T/C: 98 % of control
dose: 10.0 mg/kg/injection, schedule: Q01DX001 (ip), vehicle: carboxymethylcellulose (CMC)
  T/C: 97 % of control
dose: 10.0 mg/kg/injection, schedule: Q01DX001 (sc), vehicle: olive oil, sesame oil, peanut oil
  T/C: 97 % of control
dose: 20.0 mg/kg/injection, schedule: Q01DX001 (ip), vehicle: carboxymethylcellulose (CMC)
  T/C: 110 % of control
dose: 20.0 mg/kg/injection, schedule: Q01DX001 (sc), vehicle: olive oil, sesame oil, peanut oil
  T/C: 101 % of control

## O=[N+]([O-])c1cc([N+](=O)[O-])c(Cl)c([N+](=O)[O-])c1
dose: 50.0 mg/kg/injection, schedule: Q01DX001 (ip), vehicle: carboxymethylcellulose (CMC)
  T/C: 93 % of control [survivor count not shown]

## COc1ccc(C=C(C#N)C#N)cc1
[4]
  T/C: 97 % of control
[5]
  T/C: 103 % of control
[6]
  T/C: 100 % of control
[7]
  T/C: 94 % of control
[8]
  survivor count: 2 of 4
[1]
  survivor count: 0 of 4
[2]
  survivor count: 0 of 4
[3]
  survivor count: 0 of 4

## CCOP1OC(C)C(C)(C)O1 (stereo unspecified)
[1]
  T/C: 102 % of control
[2]
  T/C: 104 % of control
[3]
  T/C: 98 % of control

## ClP1(Cl)=NP(Cl)(Cl)=NP(Cl)(Cl)=N1
dose: 2.5 mg/kg/injection, schedule: Q01DX009 (ip), vehicle: Klucel (hydroxypropylcellulose) (HPC)
  T/C: 103 % of control
dose: 5.0 mg/kg/injection, schedule: Q01DX009 (ip), vehicle: Klucel (hydroxypropylcellulose) (HPC)
  T/C: 97 % of control
dose: 10.0 mg/kg/injection, schedule: Q01DX009 (ip), vehicle: Klucel (hydroxypropylcellulose) (HPC)
  T/C: 89 % of control
[9]
  T/C: 101 % of control
[10]
  T/C: 101 % of control
[11]
  T/C: 93 % of control
dose: 100.0 mg/kg/injection, schedule: Q04DX002 (ip), vehicle: Klucel (hydroxypropylcellulose) (HPC)
  survivor count: 2 of 3
dose: 100.0 mg/kg/injection, schedule: Q04DX003 (ip), vehicle: Klucel (hydroxypropylcellulose) (HPC)
  survivor count: 0 of 3
dose: 200.0 mg/kg/injection, schedule: Q04DX002 (ip), vehicle: Klucel (hydroxypropylcellulose) (HPC)
  survivor count: 1 of 3
dose: 200.0 mg/kg/injection, schedule: Q04DX003 (ip), vehicle: Klucel (hydroxypropylcellulose) (HPC)
  survivor count: 1 of 3
dose: 400.0 mg/kg/injection, schedule: Q04DX002 (ip), vehicle: Klucel (hydroxypropylcellulose) (HPC)
  survivor count: 0 of 3
dose: 400.0 mg/kg/injection, schedule: Q04DX003 (ip), vehicle: Klucel (hydroxypropylcellulose) (HPC)
  survivor count: 0 of 3
